PubChem BioAssay AID686938 – Drosophila RNAi Screening Center, 2013

- Assay: 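Fly genes required for calcium entry once internal stores are emptied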 (primary screen)
- Cells: Drosophila S2R+ cells
- Reagent: long dsRNA against Drosophila genes, about 0.25 µg dsRNA per well, roughly 10,000 cells
- Duration: 5 days of knock-down before the calcium assay
- Conditions: thapsigargin (SERCA pump blocker) to empty calcium stores; entry signal taken 4 min after adding it
- Detection: 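Duplicate raw fluo-4 intensities per well from a plate reader, at rest and four minutes after thapsigargin emptied calcium stores; entry-to-rest ratio filled for only some wells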
- Reading the numbers: calcium entry signal: higher = stronger calcium signal after store depletion; resting calcium signal: higher = higher resting calcium signal
- Call rule: 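Hit if the duplicate-averaged plate z-score for entry over resting signal is under −3; wells with weak total dye signal (Fmax z < −2) or more than 5 off-targets removed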
- Meaning of the calls: active = strongly reduced calcium entry; inactive = no strong reduction
In all, the deposit lists about 23,000 reagents; shown is a random part of those with a known target gene and a result. In the full data, 75 (0.33%) are marked active. 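Raw plate signals without normalisation; calls rest on plate z-scores that were not deposited; ratio present for only 364 wells.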 The numbers tell different reagents against one gene apart. No sequences are given here. Not stated in the record: the dose of the treatment.

CG11286 → calcium entry signal, replicate 1 (fluorescence units) = 3.87e7; calcium entry signal, replicate 2 (fluorescence units) = 2.59e7; resting calcium signal, replicate 1 (fluorescence units) = 1.86e7; resting calcium signal, replicate 2 (fluorescence units) = 1.30e7; Call = inactive
Sap30 → calcium entry signal, replicate 1 (fluorescence units) = 3.73e7; calcium entry signal, replicate 2 (fluorescence units) = 3.02e7; resting calcium signal, replicate 1 (fluorescence units) = 1.79e7; resting calcium signal, replicate 2 (fluorescence units) = 1.38e7; Call = inactive
CG15036 → calcium entry signal, replicate 1 (fluorescence units) = 3.40e7; calcium entry signal, replicate 2 (fluorescence units) = 3.98e7; resting calcium signal, replicate 1 (fluorescence units) = 1.69e7; resting calcium signal, replicate 2 (fluorescence units) = 2.06e7; Call = inactive
CG31465 → calcium entry signal, replicate 1 (fluorescence units) = 2.37e7; calcium entry signal, replicate 2 (fluorescence units) = 2.22e7; resting calcium signal, replicate 1 (fluorescence units) = 1.17e7; resting calcium signal, replicate 2 (fluorescence units) = 1.17e7; Call = inactive
Rox8 → calcium entry signal, replicate 1 (fluorescence units) = 3.67e7; calcium entry signal, replicate 2 (fluorescence units) = 6.11e7; resting calcium signal, replicate 1 (fluorescence units) = 3.08e7; resting calcium signal, replicate 2 (fluorescence units) = 2.42e7; Call = inactive
TwdlD → calcium entry signal, replicate 1 (fluorescence units) = 2.84e7; calcium entry signal, replicate 2 (fluorescence units) = 3.90e7; resting calcium signal, replicate 1 (fluorescence units) = 1.41e7; resting calcium signal, replicate 2 (fluorescence units) = 1.75e7; Call = inactive
spz4 → calcium entry signal, replicate 1 (fluorescence units) = 3.99e7; calcium entry signal, replicate 2 (fluorescence units) = 4.62e7; resting calcium signal, replicate 1 (fluorescence units) = 1.95e7; resting calcium signal, replicate 2 (fluorescence units) = 2.00e7; Call = inactive
Task7 → calcium entry signal, replicate 1 (fluorescence units) = 2.46e7; calcium entry signal, replicate 2 (fluorescence units) = 2.45e7; resting calcium signal, replicate 1 (fluorescence units) = 1.35e7; resting calcium signal, replicate 2 (fluorescence units) = 1.40e7; Call = inactive
Fbxl4 → calcium entry signal, replicate 1 (fluorescence units) = 2.77e7; calcium entry signal, replicate 2 (fluorescence units) = 3.50e7; resting calcium signal, replicate 1 (fluorescence units) = 1.40e7; resting calcium signal, replicate 2 (fluorescence units) = 1.60e7; Call = inactive
CngA #1 → calcium entry signal, replicate 1 (fluorescence units) = 4.67e7; calcium entry signal, replicate 2 (fluorescence units) = 4.79e7; resting calcium signal, replicate 1 (fluorescence units) = 2.23e7; resting calcium signal, replicate 2 (fluorescence units) = 2.20e7; Call = inactive
CngA #2 → calcium entry signal, replicate 1 (fluorescence units) = 4.49e7; calcium entry signal, replicate 2 (fluorescence units) = 5.10e7; resting calcium signal, replicate 1 (fluorescence units) = 1.85e7; resting calcium signal, replicate 2 (fluorescence units) = 2.35e7; Call = inactive
CG13843 → calcium entry signal, replicate 1 (fluorescence units) = 4.13e7; calcium entry signal, replicate 2 (fluorescence units) = 3.15e7; resting calcium signal, replicate 1 (fluorescence units) = 1.89e7; resting calcium signal, replicate 2 (fluorescence units) = 1.35e7; Call = inactive
sals #1 → calcium entry signal, replicate 1 (fluorescence units) = 2.79e7; calcium entry signal, replicate 2 (fluorescence units) = 3.00e7; resting calcium signal, replicate 1 (fluorescence units) = 1.20e7; resting calcium signal, replicate 2 (fluorescence units) = 1.36e7; Call = inactive
sals #2 → calcium entry signal, replicate 1 (fluorescence units) = 3.52e7; calcium entry signal, replicate 2 (fluorescence units) = 3.20e7; resting calcium signal, replicate 1 (fluorescence units) = 1.85e7; resting calcium signal, replicate 2 (fluorescence units) = 1.80e7; Call = inactive
